Data as given in PubChem BioAssay AID1259308 (NCATS, 2017)
This is an unselected part of about 59,000 reagents. About 1,510 of all reagents (2.6%) were called active. 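Calls use total luciferase alone and ignore viability, so some active siRNAs may act by altering cell number.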 The numbers tell different reagents against one gene apart. Not all columns of the deposit are shown.

Aim: 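Candidate targets for better recombinant protein yield in mammalian cells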 (primary screen)
System: human HEK293 embryonic kidney cells stably expressing firefly luciferase (HEK-CMV-Luc2-Hygro)
Reagent: single siRNA against human genes, 0.8 pmol siRNA per well
Timing: 72 h
Measurement: 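Luciferase light (ONE-Glo) measured on one replicate plate set and viability (CellTiter-Glo) on the other, scaled to a negative control siRNA, with robust z-scores and luciferase per cell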
Direction: total luciferase, z-score and total luciferase, % of control: higher = more reporter protein produced
Rule for the call: 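Active when the median/MAD z-score for overall luciferase is greater than 3; a gene was taken forward for validation with new siRNAs if at least two of its three siRNAs passed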
Calls: active = raised luciferase; inactive = no rise

PODNL1 (podocan like 1) #1 | total luciferase, z-score: -0.743; total luciferase, % of control: 67.1; Call: inactive
PODNL1 (podocan like 1) #2 | total luciferase, z-score: -0.348; total luciferase, % of control: 75; Call: inactive
PODNL1 (podocan like 1) #3 | total luciferase, z-score: -1.76; total luciferase, % of control: 46.9; Call: inactive
SPATA31E2P (SPATA31 subfamily E member 2, pseudogene) #1 | total luciferase, z-score: -1.05; total luciferase, % of control: 61.1; Call: inactive
SPATA31E2P (SPATA31 subfamily E member 2, pseudogene) #2 | total luciferase, z-score: -0.374; total luciferase, % of control: 74.4; Call: inactive
SPATA31E2P (SPATA31 subfamily E member 2, pseudogene) #3 | total luciferase, z-score: -3.23; total luciferase, % of control: 17.5; Call: inactive
ARHGAP35 (Rho GTPase activating protein 35) #1 | total luciferase, z-score: 0.895; total luciferase, % of control: 99.7; Call: inactive
ARHGAP35 (Rho GTPase activating protein 35) #2 | total luciferase, z-score: 0.372; total luciferase, % of control: 89.3; Call: inactive
ARHGAP35 (Rho GTPase activating protein 35) #3 | total luciferase, z-score: -0.65; total luciferase, % of control: 69; Call: inactive
FOXA3 (forkhead box A3) #1 | total luciferase, z-score: 0.499; total luciferase, % of control: 91.8; Call: inactive
FOXA3 (forkhead box A3) #2 | total luciferase, z-score: 0.954; total luciferase, % of control: 101; Call: inactive
FOXA3 (forkhead box A3) #3 | total luciferase, z-score: -0.781; total luciferase, % of control: 66.4; Call: inactive
KLF14 (KLF transcription factor 14) #1 | total luciferase, z-score: 0.48; total luciferase, % of control: 91.4; Call: inactive
KLF14 (KLF transcription factor 14) #2 | total luciferase, z-score: -1.7; total luciferase, % of control: 48; Call: inactive
KLF14 (KLF transcription factor 14) #3 | total luciferase, z-score: -1.29; total luciferase, % of control: 56.2; Call: inactive
AOX1 (aldehyde oxidase 1) #1 | total luciferase, z-score: -0.429; total luciferase, % of control: 73.3; Call: inactive
AOX1 (aldehyde oxidase 1) #2 | total luciferase, z-score: -1.72; total luciferase, % of control: 47.7; Call: inactive
AOX1 (aldehyde oxidase 1) #3 | total luciferase, z-score: -0.753; total luciferase, % of control: 66.9; Call: inactive
SSNA1 (SS nuclear autoantigen 1) #1 | total luciferase, z-score: -0.06; total luciferase, % of control: 80.7; Call: inactive
SSNA1 (SS nuclear autoantigen 1) #2 | total luciferase, z-score: 1.16; total luciferase, % of control: 105; Call: inactive
SSNA1 (SS nuclear autoantigen 1) #3 | total luciferase, z-score: -0.457; total luciferase, % of control: 72.8; Call: inactive
